# According to PMC7819943, “Rice protein-binding microarrays: a tool to detect cis-acting elements near promoter regions in rice”:
# Some of the results follow.
# Target: T1, OsSMF1 (Oryza sativa, UniProt Q6ZLB0 1-436)
# T1 sequence: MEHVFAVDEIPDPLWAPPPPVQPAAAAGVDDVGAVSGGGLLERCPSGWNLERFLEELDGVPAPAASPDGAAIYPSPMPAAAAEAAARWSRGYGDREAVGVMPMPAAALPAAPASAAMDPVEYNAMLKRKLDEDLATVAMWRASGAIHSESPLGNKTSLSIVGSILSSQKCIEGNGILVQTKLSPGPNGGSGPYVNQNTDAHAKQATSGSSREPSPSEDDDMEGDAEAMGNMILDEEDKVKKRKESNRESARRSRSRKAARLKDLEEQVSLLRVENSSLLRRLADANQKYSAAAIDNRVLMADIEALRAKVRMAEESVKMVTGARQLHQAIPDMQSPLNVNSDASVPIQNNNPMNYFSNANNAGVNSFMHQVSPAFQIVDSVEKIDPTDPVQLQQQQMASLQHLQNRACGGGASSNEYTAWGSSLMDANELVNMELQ
# Assay: protein-binding microarray (RPBM); PBS, 2% BSA, 51.3 ng/ul salmon testes DNA, 50 uM zinc acetate, 200 nM TF, 25 C, 1 h; high values mean tight binding
# Conditions: protein: recombinant; tags: N-terminal polyhistidine and DsRed monomer fusion (pET32a); chain copies: 2; label: CyDye5-dUTP incorporated in the synthesized complementary strand; 3' TTTTT single-stranded linker to array surface; dsDNA, one strand shown
# Method in brief: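 Binding signal is reported as fluorescence intensity per feature (arbitrary units) from an Axon 4000B scanner. Incubation used 200 nM of each Ni–NTA-purified, N-terminally polyhistidine- and DsRed-fused transcription factor from E. coli BL21-CodonPlus on a double-stranded custom Agilent array for 1 h at 25 °C, with 50 µM zinc acetate in the buffer, followed by washing.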
row,Sequence,binding signal
1,CCGCACCCGCATCCCTTTCCCGCAAGGCCGCAACACCGTCCGGAGTCACCTAGTGCAG,12600 fluorescence intensity (a.u.)
2,TGTTTATTTTAATTAGATGAATCATCAAATGTTTATCAAACGGAGTCACCTAGTGCAG,3690 fluorescence intensity (a.u.)
3,GCCTGACCACCGTTCAACTGCGTCTGCAGTTTTATTCCTTCGGAGTCACCTAGTGCAG,4050 fluorescence intensity (a.u.)
4,CAATGTGGTTTCATTAAAGTTGTAATCAGCTCTAGATTTTCGGAGTCACCTAGTGCAG,15700 fluorescence intensity (a.u.)
5,CATTTCATTGCTATGAAGGGGCCGGGTATTTGGCATGCTACGGAGTCACCTAGTGCAG,21400 fluorescence intensity (a.u.)
6,TTTACATCTTCTCCATCTCCACGTATTGTGTGCAACAAAACGGAGTCACCTAGTGCAG,4290 fluorescence intensity (a.u.)
7,GCCGCCGTCATCTCCAGCTTCTGCGGGAGCAACACCGCCACGGAGTCACCTAGTGCAG,3470 fluorescence intensity (a.u.)
8,CTCCTGCCTGTCTCACACACACCTGACGCGTGTGCGTGGGCGGAGTCACCTAGTGCAG,5120 fluorescence intensity (a.u.)
9,CCTCCACAATACAATTCAATTCCCTCCTAGGTTTGTTATGCGGAGTCACCTAGTGCAG,3440 fluorescence intensity (a.u.)
10,ACGTTCATATCAACGACCGTCATCAATTGATGATCTGACTCGGAGTCACCTAGTGCAG,7580 fluorescence intensity (a.u.)
11,GAGGAAACTGGGCAACCAACCAGGCATCGGGACGTGTCAACGGAGTCACCTAGTGCAG,6480 fluorescence intensity (a.u.)
12,ATATAGTAACGATAACCAGTGGCTCCACGTCAGCATGTTTCGGAGTCACCTAGTGCAG,35000 fluorescence intensity (a.u.)
13,CTAACTTTTCCTTGTTTTCCACGTCTTTGGGAAGGGAGATCGGAGTCACCTAGTGCAG,4590 fluorescence intensity (a.u.)
14,AACACAGCCATAATAATGGAGACGTTTAAATTACGTCAGGCGGAGTCACCTAGTGCAG,4170 fluorescence intensity (a.u.)
15,TTTCAGACTGTCAACGTCTCACCGATAATTCGCGTGTCTGCGGAGTCACCTAGTGCAG,3210 fluorescence intensity (a.u.)
16,ATTCTCGTACACGAAAAGTCTTTTCAGCTGTCGCTTCATACGGAGTCACCTAGTGCAG,3140 fluorescence intensity (a.u.)
17,AGTCAGTTTTGCATTTCGGCACGTGCGTGTCAGGGGCAGACGGAGTCACCTAGTGCAG,5840 fluorescence intensity (a.u.)
18,CGCTCATGCTCGCCGCCACGTCGTCACTTCCGCCCCTTCCCGGAGTCACCTAGTGCAG,18600 fluorescence intensity (a.u.)
19,GATAATCATGTAAGAATGATGTTGCTGGATTTATTATTAACGGAGTCACCTAGTGCAG,3280 fluorescence intensity (a.u.)
20,ATCTTCCCAAGTGGCCACCAGATAAGCCTCTCCACGTATTCGGAGTCACCTAGTGCAG,4930 fluorescence intensity (a.u.)
21,CTAGACTGTGCCCTCTATTTCCACTCCGGCTGACGGCATTCGGAGTCACCTAGTGCAG,3550 fluorescence intensity (a.u.)
22,ATCCGCCGCTGACGCCGACGGTGGAGGTCGGATCCGCCGCCGGAGTCACCTAGTGCAG,3500 fluorescence intensity (a.u.)
23,TGATCCGTGCCATCGTAACTATGCCTATTCAGATAAATGCCGGAGTCACCTAGTGCAG,3940 fluorescence intensity (a.u.)
24,AAAAGTTACTATCTCCGTTCTCAAATAGATGTCGTCATTGCGGAGTCACCTAGTGCAG,5160 fluorescence intensity (a.u.)
25,CGTTGTGTTGGTATGTGGTCTTCCTCCTCGTGTCTGTCGCCGGAGTCACCTAGTGCAG,19800 fluorescence intensity (a.u.)
26,GTCCACCAGCTGCTGCTCACGTGGATTGGGCTGAAGACGACGGAGTCACCTAGTGCAG,5030 fluorescence intensity (a.u.)
27,CGTGTCACCATGGACGTCTCGCTGTTAATAGGTATATAGTCGGAGTCACCTAGTGCAG,27400 fluorescence intensity (a.u.)

row,Sequence,binding signal
1,TTTGGACACCTATATGGGCGGGCGGGTGTATGTACAGTACCGGAGTCACCTAGTGCAG,3980 fluorescence intensity (a.u.)
2,GACTCTACTACGTGTAAACTCTACAGAGGCACGCCTCATGCGGAGTCACCTAGTGCAG,3290 fluorescence intensity (a.u.)
3,TTGGCGGTGATCGAGGTTAGACATCTCACCGTCAATCTTGCGGAGTCACCTAGTGCAG,3180 fluorescence intensity (a.u.)
4,CCACGCACCCCACGGACGTGTCGGCCGCCAGAAGCTCCGGCGGAGTCACCTAGTGCAG,3310 fluorescence intensity (a.u.)
5,TTTCGTTAATGGAGACTGACATCATGGATTTTAGTTTCCTCGGAGTCACCTAGTGCAG,3750 fluorescence intensity (a.u.)
6,GGTCACAACCAATCCAACTCATTCACTTGGTTCCCAGCTCCGGAGTCACCTAGTGCAG,3800 fluorescence intensity (a.u.)
7,CCTCCGCGCCCACGCCACGCCGTGGACGACGACGACGCCGCGGAGTCACCTAGTGCAG,3450 fluorescence intensity (a.u.)
8,GCTTGAGCAGTAGAGATTCAGCGATACTGATGCACCAGTCCGGAGTCACCTAGTGCAG,18500 fluorescence intensity (a.u.)
9,TCGTGGGAATGGCTGAGGATTAGGGCGCCACGTCATCGTTCGGAGTCACCTAGTGCAG,45600 fluorescence intensity (a.u.)
10,ACACTAACGCTAGTGCGTCATGACGCTAAGATGTACCTTTCGGAGTCACCTAGTGCAG,5680 fluorescence intensity (a.u.)
11,TCTAGCTTTTGCAAAAGGTGTGACACCACCCACGGTACAGCGGAGTCACCTAGTGCAG,3780 fluorescence intensity (a.u.)
12,TCCCGAAATAACAAAAGCAGCTCCACGTTTATTTGTCACACGGAGTCACCTAGTGCAG,4040 fluorescence intensity (a.u.)
13,TGAGCCATTAGCGCATGATTAATTGAGTATTAAATATTTTCGGAGTCACCTAGTGCAG,33900 fluorescence intensity (a.u.)
14,AAACTGCAACAACCGCCACGCCAGAGTCCACCGCACGCCACGGAGTCACCTAGTGCAG,6650 fluorescence intensity (a.u.)
15,AATTCCGCCGCCGCCAAGCGGCCTCGCCCTCGCGTCGTCACGGAGTCACCTAGTGCAG,3870 fluorescence intensity (a.u.)
16,GCTACCAGAGGTTTAGTTTTCCACGTGTTAATTAGATTGGCGGAGTCACCTAGTGCAG,8410 fluorescence intensity (a.u.)
17,CCTGTTCTCCTGTCATCCCCTATTTAATTTGTTGAACTAGCGGAGTCACCTAGTGCAG,4440 fluorescence intensity (a.u.)
18,CCCTTGTCATCGTCATCCGATTGTGCCTTCCCTGATTTTCCGGAGTCACCTAGTGCAG,28000 fluorescence intensity (a.u.)
19,GCGAGATGATGCAATCCACGAACAGTTTGATGACATATCTCGGAGTCACCTAGTGCAG,4090 fluorescence intensity (a.u.)
20,AACAGTGCACATCCGTATGTGTCATGGTCAACTAGGCAACCGGAGTCACCTAGTGCAG,6010 fluorescence intensity (a.u.)
21,GGTCAGAGTTGCATCCCGGCCACTGGCCAGCCACGACGACCGGAGTCACCTAGTGCAG,4420 fluorescence intensity (a.u.)
22,TAACATATATATATATATATATATATATATATATATATATCGGAGTCACCTAGTGCAG,3200 fluorescence intensity (a.u.)
23,TGTGGGCGGCCATACTTGCGGTGACAGTGTGACGCACATGCGGAGTCACCTAGTGCAG,6410 fluorescence intensity (a.u.)
24,GAGGATCCGATTCCGCTATAGTGACACATGTCGGTGAACACGGAGTCACCTAGTGCAG,3450 fluorescence intensity (a.u.)
25,TTGAATGTTTTCCAAAACGTAATATTTCAAATTAAGTTTGCGGAGTCACCTAGTGCAG,30500 fluorescence intensity (a.u.)
26,TTTATTCTGCGCATTGGGATCAACTATGACAGGTCACTACCGGAGTCACCTAGTGCAG,6270 fluorescence intensity (a.u.)
27,AAAATTTGAGAGAGTGGCATCTGAACACTGGCATTTTGAGCGGAGTCACCTAGTGCAG,4580 fluorescence intensity (a.u.)

# Exported with bars between the fields: part of the list above.
row | Sequence | binding signal
7 | GCCGCCGTCATCTCCAGCTTCTGCGGGAGCAACACCGCCACGGAGTCACCTAGTGCAG | 3470 fluorescence intensity (a.u.)
14 | AACACAGCCATAATAATGGAGACGTTTAAATTACGTCAGGCGGAGTCACCTAGTGCAG | 4170 fluorescence intensity (a.u.)
20 | ATCTTCCCAAGTGGCCACCAGATAAGCCTCTCCACGTATTCGGAGTCACCTAGTGCAG | 4930 fluorescence intensity (a.u.)
1 | TTTGGACACCTATATGGGCGGGCGGGTGTATGTACAGTACCGGAGTCACCTAGTGCAG | 3980 fluorescence intensity (a.u.)
3 | TTGGCGGTGATCGAGGTTAGACATCTCACCGTCAATCTTGCGGAGTCACCTAGTGCAG | 3180 fluorescence intensity (a.u.)
5 | TTTCGTTAATGGAGACTGACATCATGGATTTTAGTTTCCTCGGAGTCACCTAGTGCAG | 3750 fluorescence intensity (a.u.)
6 | GGTCACAACCAATCCAACTCATTCACTTGGTTCCCAGCTCCGGAGTCACCTAGTGCAG | 3800 fluorescence intensity (a.u.)
13 | TGAGCCATTAGCGCATGATTAATTGAGTATTAAATATTTTCGGAGTCACCTAGTGCAG | 33900 fluorescence intensity (a.u.)
16 | GCTACCAGAGGTTTAGTTTTCCACGTGTTAATTAGATTGGCGGAGTCACCTAGTGCAG | 8410 fluorescence intensity (a.u.)
17 | CCTGTTCTCCTGTCATCCCCTATTTAATTTGTTGAACTAGCGGAGTCACCTAGTGCAG | 4440 fluorescence intensity (a.u.)
23 | TGTGGGCGGCCATACTTGCGGTGACAGTGTGACGCACATGCGGAGTCACCTAGTGCAG | 6410 fluorescence intensity (a.u.)
25 | TTGAATGTTTTCCAAAACGTAATATTTCAAATTAAGTTTGCGGAGTCACCTAGTGCAG | 30500 fluorescence intensity (a.u.)
27 | AAAATTTGAGAGAGTGGCATCTGAACACTGGCATTTTGAGCGGAGTCACCTAGTGCAG | 4580 fluorescence intensity (a.u.)
